{"source": "PubChem BioAssay AID540276", "about": "(National Center for Advancing Translational Sciences (NCATS), 2011)", "note": "Hit rate of the full screen: of about 300,000 compounds, about 5,400 (1.8%) were called active. Inconclusive means that the source gave no clear call. Such entries were picked first, then a sample of the others. The call rests on the fitted dose curve; tested in HEK293 cells. Where the call is inconclusive, the potency comes from a doubtful curve fit. Potency means the concentration at half of the fitted maximal effect."}
{"assay": "qHTS for inhibitors of binding or entry into cells for Marburg Virus", "conditions": "Marburg virus pseudotyped entry inhibition, cell reporter; series mostly up to 37.8 µM"}
{"compound": "Cc1ccnc(NS(=O)(=O)c2ccc(NC(=O)CCc3ccccc3)cc2)n1", "Potency": "inconclusive: 0.562 µM [inhibitor, full curve, poor fit]"}
{"compound": "CN(Cc1cccs1)C(=O)CSc1nc(N)cc(N)n1", "Potency": "inactive"}
{"compound": "Cc1ccccc1C(=O)/C(C#N)=N/Nc1c(C)n(C)n(-c2ccccc2)c1=O", "Potency": "inconclusive: 20 µM [inhibitor, partial curve, poor fit]"}
{"compound": "O=C(c1cc(Br)c(Br)s1)N1CCN(c2ccccn2)CC1", "Potency": "inconclusive: 5.62 µM [inhibitor, single point]"}
{"compound": "CC(C)c1cc(=O)oc2c3c4c(cc12)CCCN4CCC3", "Potency": "inconclusive: 16.4 µM [inhibitor, partial curve, poor fit]"}
{"compound": "CCOC(=O)c1c(-c2ccccc2)csc1NC(=O)c1ccc(S(=O)(=O)N2CCOCC2)cc1", "Potency": "inconclusive: 0.82 µM [inhibitor, single point]"}
{"compound": "CCCn1nc(C(=O)OCC(=O)Nc2cccc(S(N)(=O)=O)c2)c2ccccc2c1=O", "Potency": "inconclusive: 35.5 µM [inhibitor, single point]"}
{"compound": "O=S(=O)(NC1CCSc2ccccc21)c1ccccc1", "note": "(stereo not drawn)", "Potency": "inconclusive: 35.5 µM [inhibitor, single point]"}
{"compound": "CSc1ccccc1NC(=O)CN(C)CC(=O)NCc1ccccc1", "Potency": "inactive"}
{"compound": "Cc1cccc(NC(=S)N/N=C/c2ccc3c(c2)OCO3)c1", "Potency": "inconclusive: 29.1 µM [inhibitor, single point]"}
{"compound": "CSCC[C@H](NC(=O)c1ccc(Cl)c(S(=O)(=O)N2CCCC2)c1)c1nc2ccccc2[nH]1", "Potency": "inactive"}
{"compound": "Clc1ccc(Cl)c(OCCCCN2CCNCC2)c1", "Potency": "active: 11.2 µM"}
{"compound": "COc1ccc(CN2C3CCCC2CC(NC(=O)Nc2ccccc2)C3)cc1", "note": "(stereo not drawn)", "Potency": "inconclusive: 0.92 µM [inhibitor, full curve, poor fit]"}
{"compound": "Cc1ccnc(NS(=O)(=O)c2ccccc2)n1", "Potency": "inconclusive: 0.82 µM [inhibitor, full curve, poor fit]"}
{"compound": "Cc1c(C)n2c(SCC(=O)N3CCN(c4ccccc4)CC3)nnc2[nH]c1=O", "Potency": "inactive"}
{"compound": "O=CN(Cc1nc2ccccc2[nH]1)c1ccc(C(=O)O)cc1", "Potency": "inconclusive: 11.2 µM [activator, partial curve]"}
{"compound": "CCOC(=O)c1ccc(N2C(=O)CC(N3CCN(C(=O)c4ccco4)CC3)C2=O)cc1", "note": "(stereo not drawn)", "Potency": "inactive"}
{"compound": "O=C(CSc1ncccc1C(=O)O)c1ccc2ccccc2c1", "Potency": "inconclusive: 29.1 µM [inhibitor, single point]"}
{"compound": "O=C(COC(=O)c1ccccc1C(=O)c1ccc(Cl)cc1)NCC1CCCO1", "note": "(stereo not drawn)", "Potency": "inconclusive: 35.5 µM [activator, single point]"}
{"compound": "CC(Nc1nc(Nc2ccc(F)cc2)nc(SCC(N)=O)n1)c1ccccc1", "note": "(stereo not drawn)", "Potency": "inconclusive: 22.4 µM [inhibitor, single point]"}
{"compound": "N#Cc1cc(-c2ccc(Cl)cc2)cn(Cc2c(Cl)cccc2Cl)c1=O", "Potency": "inactive"}
{"compound": "CCOC(=O)N1CCN(C(=O)c2ccc3c(=O)n(CCc4ccc(OC)c(OC)c4)c(=O)[nH]c3c2)CC1", "Potency": "inconclusive: 6.31 µM [inhibitor, single point]"}
{"compound": "O=C(c1cc2ccccc2o1)c1cccs1", "Potency": "inactive"}
{"compound": "Cc1oc(-c2ccccc2F)nc1CSCC(=O)NC1CCCC1", "Potency": "inactive"}
{"compound": "CC(=O)c1ccc(OC(C)C)c(CC(C(N)=O)C(N)=O)c1", "Potency": "inconclusive: 0.082 µM [inhibitor, full curve, poor fit]"}
{"compound": "CCOC(=O)CC(NS(=O)(=O)c1ccc2[nH]c(=O)sc2c1)c1ccc(C)cc1", "note": "(stereo not drawn)", "Potency": "inconclusive: 17.8 µM [inhibitor, single point]"}
{"compound": "CCOc1ccc(-c2csc3ncn(-c4ccc(OC)cc4)c(=O)c23)cc1", "Potency": "inconclusive: 17.8 µM [inhibitor, partial curve, poor fit]"}
{"compound": "NC(=O)c1cnn2c(-c3ccc(Cl)cc3Cl)ccnc12", "Potency": "inactive"}
{"compound": "CCN(CC)c1ccc(/C=N/NC(=O)CNC(=O)c2ccc3c(c2)OCCO3)cc1", "Potency": "inactive"}
{"compound": "O=C1NC(=O)C(=Cc2ccc(Cl)c(Cl)c2)S1", "Potency": "inactive"}
{"compound": "Cc1ccc(-c2nnc(-c3ccc(NC(=O)c4ccco4)cc3)o2)cc1", "Potency": "inconclusive: 35.5 µM [activator, single point]"}
{"compound": "COc1cc2c(=O)c(-c3ccc(O)cc3)coc2cc1OC1OC(CO)C(O)C(O)C1O", "note": "(stereo not drawn)", "Potency": "inconclusive: 20.6 µM [activator, single point]"}
{"compound": "O=C(Cn1nc(C(F)F)cc1C(F)F)N/N=C/c1ccc2c(c1)OCO2", "Potency": "inactive"}
{"compound": "CCCCCSc1cc(OC)c(CCN)cc1OC", "Potency": "inconclusive: 12.6 µM [inhibitor, partial curve, poor fit]"}
{"compound": "CCOc1cc2[nH]c(=S)n(Cc3ccc(C)o3)c(=O)c2cc1OCC", "Potency": "inconclusive: 20.6 µM [inhibitor, partial curve, poor fit]"}
{"compound": "Cc1ccc(C)c(Cn2c3ccccc3c3cnn(CC(=O)NCCN4CCOCC4)c(=O)c32)c1", "Potency": "inconclusive: 22.4 µM [inhibitor, partial curve, poor fit]"}
{"compound": "Cc1ccc(NC(=O)C(=O)NCc2ccccn2)cc1", "Potency": "inactive"}
{"compound": "CC(N=Cc1c(O)n(C2CC2)c(=S)[nH]c1=O)c1ccccc1", "note": "(stereo not drawn)", "Potency": "inconclusive: 2.51 µM [inhibitor, partial curve, poor fit]"}
{"compound": "Cc1cccc(C(=O)N(Cc2ccco2)Cc2ccccc2F)c1", "Potency": "inactive"}
{"compound": "CC(=O)c1cccc(-n2c(=O)c3c4c(sc3n(CC(=O)c3ccc(Cl)cc3)c2=O)CN(C(C)=O)CC4)c1", "Potency": "inconclusive: 6.31 µM [inhibitor, partial curve, poor fit]"}
{"compound": "C/C(N)=C(/C#N)C(=O)CSc1nc2ccc(C)cc2[nH]1", "Potency": "inconclusive: 29.1 µM [inhibitor, single point]"}
{"compound": "OC1CCN(Cc2ccc(OCc3ccccc3)cc2)CC1", "Potency": "inconclusive: 6.31 µM [activator, single point]"}
{"compound": "COc1ccnc(CN(C)C(=O)C2CCC(=O)N(Cc3cccc(C(F)(F)F)c3)C2)c1", "note": "(stereo not drawn)", "Potency": "inactive"}
{"compound": "CN(C(=O)c1ccccn1)c1nnc(-c2cccnc2)s1", "Potency": "inconclusive: 1.26 µM [inhibitor, partial curve, poor fit]"}
{"compound": "CSc1nc(N(C)C)nc(N(C#N)CCOC(C)=O)n1", "Potency": "inconclusive: 6.31 µM [activator, single point]"}
{"compound": "CC(=O)N1c2ccc(S(=O)(=O)NCC3CCC(C(=O)N(C)Cc4ccccc4)CC3)cc2CC1C", "note": "(stereo not drawn)", "Potency": "inconclusive: 10 µM [inhibitor, partial curve]"}
{"compound": "N#Cc1ccc(NC(=O)Nc2ccc(Oc3ccc(NC(=O)Nc4ccc(C#N)cc4)cc3)cc2)cc1", "Potency": "inconclusive: 2.82 µM [inhibitor, partial curve, poor fit]"}
{"compound": "CCOc1ccc(-c2ncncc2-c2ccccc2OC)c(O)c1", "Potency": "inconclusive: 10 µM [inhibitor, partial curve, poor fit]"}
{"compound": "CCOC(=O)C1CCCN(S(=O)(=O)CCNC(=O)c2cccc(OC)c2)C1", "note": "(stereo not drawn)", "Potency": "inconclusive: 5.62 µM [inhibitor, single point]"}
{"compound": "CCOc1ccc(-n2c(SCc3ccc([N+](=O)[O-])cc3)nnc2-c2ccccc2)cc1", "Potency": "inconclusive: 28.2 µM [inhibitor, single point]"}
{"compound": "Cc1cc(C)cc(OCC(=O)N/N=C/c2ccc([N+](=O)[O-])o2)c1", "Potency": "inconclusive: 3.55 µM [inhibitor, partial curve, poor fit]"}
{"compound": "CC1(C)CC(=O)c2c(oc3ccc(NS(=O)(=O)c4ccc(C(=O)O)cc4)cc23)C1", "Potency": "inconclusive: 12.6 µM [activator, single point]"}
{"compound": "CC(=O)Nc1ccc2sccc2c1", "Potency": "inactive"}
{"compound": "CC(C)Cc1ccc(CN2CCCC(NC(=O)c3cccc(-n4cnnc4)c3)C2)cc1", "note": "(stereo not drawn)", "Potency": "inconclusive: 35.5 µM [inhibitor, single point]"}
{"compound": "COc1cc2c(C(=O)N3CCOCC3)c(CSc3ccccc3)n(C)c2cc1Br", "Potency": "inconclusive: 20.6 µM [inhibitor, single point]"}
{"compound": "CN(CC(=O)Nc1ccc(Cl)c(C(F)(F)F)c1)C(=O)CCN1C(=O)C2CCCCC2C1=O", "note": "(stereo not drawn)", "Potency": "inconclusive: 1.26 µM [inhibitor, single point]"}
{"compound": "O=C(NC12CC3CC(CC(C3)C1)C2)c1ccc(COc2ccc(Cl)cc2[N+](=O)[O-])o1", "Potency": "inconclusive: 20 µM [inhibitor, single point]"}
{"compound": "FC(F)(F)c1cc(C(F)(F)F)c2ccc(N3CCN(c4ccccc4)CC3)nc2n1", "Potency": "inconclusive: 29.1 µM [inhibitor, single point]"}
{"compound": "CCOC(=O)c1ccc[n+](C(C)C(=O)c2ccc(-c3ccccc3)cc2)c1", "note": "(stereo not drawn)", "Potency": "inactive"}
{"compound": "O=C(COc1ccc(Br)cc1Cl)NC1CCCCC1", "Potency": "inconclusive: 3.16 µM [activator, single point]"}
{"compound": "O=c1cc(N2CCOCC2)c2ccccc2o1", "Potency": "inactive"}
{"compound": "Nc1nonc1-n1nnc(C(=O)N/N=C/c2ccccc2)c1CN1CCc2ccccc21", "Potency": "inactive"}
{"compound": "CCOC(=O)/C=C1\\Nc2ccccc2SC1=O", "Potency": "inactive"}
{"compound": "Cc1ccc(-c2csc(CC(N)=O)n2)cc1", "Potency": "inconclusive: 25.1 µM [activator, single point]"}
{"compound": "CCOc1ccc(C(=O)Nc2ccc(NC(=O)c3ccco3)c(Cl)c2)cc1Cl", "Potency": "inconclusive: 14.1 µM [inhibitor, single point]"}
{"compound": "O=C(Cc1ccsc1)NNC(=O)c1ccccc1Cl", "Potency": "inactive"}
{"compound": "CN(CC(=O)Nc1ccccc1C(F)(F)F)C(=O)c1cc([N+](=O)[O-])ccc1N1CCOCC1", "Potency": "inactive"}
{"compound": "Cc1ccc(S(=O)(=O)N2CCc3cc(C(=O)NCCc4ccccc4)ccc32)cc1", "Potency": "inconclusive: 28.2 µM [inhibitor, single point]"}
